Earlier results in US20170258787A1, “PROPHYLACTIC AND/OR THERAPEUTIC AGENT FOR BEHAVIORAL AND PSYCHOLOGICAL SYMPTOMS ASSOCIATED WITH NEURODEGENERATIVE DISEASE OR IMPULSIVE SYMPTOMS ASSOCIATED WITH MENTAL DISEASE CONTAINING BREXPIPRAZOLE OR SALT THEREOF” (OTSUKA PHARMACEUTICAL CO., LTD., priority 2012, published 2017).
At least one structure is not confirmed: it was looked up by name or label, or the drawing left a doubt.

Tests used:
[1] = system: schizophrenia patients; conditions: Psychiatric Services 2001, 52:1510-14; cited from earlier work
[2] = system: mouse having a Disc1 L100P point mutation; conditions: Neuron 54(3): 387-402, 2007; cited from earlier work

SMILES: CN1CCN(C2=Nc3cc(Cl)ccc3Nc3ccccc32)CC1 [Clozapine]
- hostility (positive scale of PANSS) [1]: attenuated statistically significant hostility
- schizophrenia-like behaviors [2]: reduced the schizophrenia-like behaviors
